No constants are given. Whether binding was seen depends on the method and setting. In cells and extracts the contact can be indirect. Binding can be weak; no strength is given.
Biological target: Cep152 full-length FL(1–1654) (human)
Test: co-IP; transfected HEK293 cells lysed in TBSN buffer [20 mM Tris-HCl (pH 8.0), 150 mM NaCl, 0.5% Nonidet P-40, 5 mM EGTA, 1.5 mM EDTA]; IP with anti-FLAG or anti-GFP antibody and protein A/G-agarose; immunoblotting

binding: binds
B1: Plk4, expressed in HEK293 cells (enzyme, UniProt O00444 1-970)
chain: MATCIGEKIEDFKVGNLLGKGSFAGVYRAESIHTGLEVAIKMIDKKAMYKAGMVQRVQNEVKIHCQLKHPSILELYNYFEDSNYVYLVLEMCHNGEMNRYLKNRVKPFSENEARHFMHQIITGMLYLHSHGILHRDLTLSNLLLTRNMNIKIADFGLATQLKMPHEKHYTLCGTPNYISPEIATRSAHGLESDVWSLGCMFYTLLIGRPPFDTDTVKNTLNKVVLADYEMPSFLSIEAKDLIHQLLRRNPADRLSLSSVLDHPFMSRNSSTKSKDLGTVEDSIDSGHATISTAITASSSTSISGSLFDKRRLLIGQPLPNKMTVFPKNKSSTDFSSSGDGNSFYTQWGNQETSNSGRGRVIQDAEERPHSRYLRRAYSSDRSGTSNSQSQAKTYTMERCHSAEMLSVSKRSGGGENEERYSPTDNNANIFNFFKEKTSSSSGSFERPDNNQALSNHLCPGKTPFPFADPTPQTETVQQWFGNLQINAHLRKTTEYDSISPNRDFQGHPDLQKDTSKNAWTDTKVKKNSDASDNAHSVKQQNTMKYMTALHSKPEIIQQECVFGSDPLSEQSKTRGMEPPWGYQNRTLRSITSPLVAHRLKPIRQKTKKAVVSILDSEEVCVELVKEYASQEYVKEVLQISSDGNTITIYYPNGGRGFPLADRPPSPTDNISRYSFDNLPEKYWRKYQYASRFVQLVRSKSPKITYFTRYAKCILMENSPGADFEVWFYDGVKIHKTEDFIQVIEKTGKSYTLKSESEVNSLKEEIKMYMDHANEGHRICLALESIISEEERKTRSAPFFPIIIGRKPGSTSSPKALSPPPSVDSNYPTRERASFNRMVMHSAASPTQAPILNPSMVTNEGLGLTTTASGTDISSNSLKDCLPKSAQLLKSVFVKNVGWATQLTSGAVWVQFNDGSQLVVQAGVSSISYTSPNGQTTRYGENEKLPDYIKQKLQCLSSILLMFSNPTPNFH
